From US7897568B2, “Compositions for treatment of cancer” (priority 2006, dated 2011)
Results are given in words; binding and its absence hold for the method and conditions named. Binding seen in cells or lysates may run through a third protein. Some binding calls cover weakened binding; strength is not graded here.

Sequences of proteins named here, by UniProt entry; tags and fusion partners are left off. A change or cut given only in a name is not applied to a line headed by its entry.
UniProt O76070: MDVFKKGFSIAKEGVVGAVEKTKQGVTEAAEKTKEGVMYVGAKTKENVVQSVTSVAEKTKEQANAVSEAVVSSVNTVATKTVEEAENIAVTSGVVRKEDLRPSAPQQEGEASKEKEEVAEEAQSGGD
UniProt O60566: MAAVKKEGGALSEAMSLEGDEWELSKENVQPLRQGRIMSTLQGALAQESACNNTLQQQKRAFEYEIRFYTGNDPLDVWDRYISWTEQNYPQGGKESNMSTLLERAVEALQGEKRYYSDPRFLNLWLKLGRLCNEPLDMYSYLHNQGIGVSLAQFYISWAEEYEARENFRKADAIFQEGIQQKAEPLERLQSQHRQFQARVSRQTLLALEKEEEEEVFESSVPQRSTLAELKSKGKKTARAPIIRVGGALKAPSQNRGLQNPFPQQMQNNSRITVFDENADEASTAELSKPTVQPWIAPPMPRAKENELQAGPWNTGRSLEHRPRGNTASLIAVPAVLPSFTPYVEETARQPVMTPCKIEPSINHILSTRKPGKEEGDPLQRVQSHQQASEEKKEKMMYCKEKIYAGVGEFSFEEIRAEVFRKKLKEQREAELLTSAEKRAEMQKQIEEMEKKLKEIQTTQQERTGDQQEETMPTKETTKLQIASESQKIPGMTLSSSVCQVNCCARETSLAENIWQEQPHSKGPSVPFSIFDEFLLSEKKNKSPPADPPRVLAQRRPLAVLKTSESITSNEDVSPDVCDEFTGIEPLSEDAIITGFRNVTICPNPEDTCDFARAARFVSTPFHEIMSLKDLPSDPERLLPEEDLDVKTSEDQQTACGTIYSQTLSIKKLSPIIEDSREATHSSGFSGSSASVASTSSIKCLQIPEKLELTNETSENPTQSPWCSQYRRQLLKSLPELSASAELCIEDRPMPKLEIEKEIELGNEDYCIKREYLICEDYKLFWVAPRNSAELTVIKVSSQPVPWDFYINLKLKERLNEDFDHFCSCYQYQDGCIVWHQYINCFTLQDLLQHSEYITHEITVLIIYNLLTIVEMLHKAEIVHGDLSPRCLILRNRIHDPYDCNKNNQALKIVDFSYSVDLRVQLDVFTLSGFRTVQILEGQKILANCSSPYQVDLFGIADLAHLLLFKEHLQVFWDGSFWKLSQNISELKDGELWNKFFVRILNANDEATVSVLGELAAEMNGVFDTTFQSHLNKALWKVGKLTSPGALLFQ

Target: SNCG expressed in cells (MCF7-SNCG, T47D, or COS7 transfected with pCI-SNCG) (UniProt O76070)
Assay: co-IP with anti-SNCG antibody from transfected COS7 cells, western blot

binding: binds
Substance: myc-tagged BubR1 (from UniProt O60566 1-1050) (enzyme)
